Data taken from PMC6265327.
Results are given in words; binding and its absence hold for the method and conditions named. Some binding calls cover weakened binding; strength is not graded here. Sequences can lack the tags named with a protein.

Target: T1, C-terminal Pol2 (C-Pol2), the Pol2 chain of Pol epsilon deltacat (yeast (strains based on W303)) (UniProt P21951)
T1 sequence: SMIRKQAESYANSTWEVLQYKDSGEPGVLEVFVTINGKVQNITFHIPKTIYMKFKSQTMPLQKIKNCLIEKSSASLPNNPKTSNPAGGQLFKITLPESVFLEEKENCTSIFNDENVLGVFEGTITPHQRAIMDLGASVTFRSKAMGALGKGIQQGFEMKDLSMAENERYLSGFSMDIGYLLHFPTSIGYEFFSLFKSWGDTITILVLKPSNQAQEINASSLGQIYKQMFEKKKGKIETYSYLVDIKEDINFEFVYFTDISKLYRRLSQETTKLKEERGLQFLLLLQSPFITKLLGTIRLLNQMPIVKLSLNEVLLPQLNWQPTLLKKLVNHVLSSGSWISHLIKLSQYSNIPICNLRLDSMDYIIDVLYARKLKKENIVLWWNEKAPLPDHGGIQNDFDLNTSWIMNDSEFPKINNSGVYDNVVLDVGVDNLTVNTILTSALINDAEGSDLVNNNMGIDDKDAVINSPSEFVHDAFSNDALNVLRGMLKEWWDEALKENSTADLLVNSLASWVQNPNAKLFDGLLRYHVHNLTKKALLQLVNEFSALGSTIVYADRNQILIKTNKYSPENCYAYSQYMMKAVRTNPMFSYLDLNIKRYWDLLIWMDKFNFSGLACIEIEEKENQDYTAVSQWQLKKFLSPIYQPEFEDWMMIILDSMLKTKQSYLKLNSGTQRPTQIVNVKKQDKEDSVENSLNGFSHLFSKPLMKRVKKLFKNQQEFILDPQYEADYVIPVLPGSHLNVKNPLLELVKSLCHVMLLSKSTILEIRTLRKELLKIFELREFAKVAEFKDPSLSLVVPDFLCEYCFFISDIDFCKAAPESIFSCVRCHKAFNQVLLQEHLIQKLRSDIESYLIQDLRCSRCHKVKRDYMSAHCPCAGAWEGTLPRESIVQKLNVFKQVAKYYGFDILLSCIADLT
Experiment: cryo-EM structure; purified Pol epsilon deltacat (C-Pol2, Dpb2, Dpb3, Dpb4) crosslinked with 0.01% glutaraldehyde on ice; Volta phase plate, Falcon III; 4.45 Å; both purified

binding: binds
B1: Dpb2, subunit of the CBP-tagged Pol epsilon complexes (deltacat and exo-) (protein, UniProt P24482 1-689)
chain: MFGSGNVLPVKIQPPLLRPLAYRVLSRKYGLSIKSDGLSALAEFVGTNIGANWRQGPATIKFLEQFAAVWKQQERGLFIDQSGVKEVIQEMKEREKVEWSHEHPIQHEENILGRTDDDENNSDDEMPIAADSSLQNVSLSSPMRQPTERDEYKQPFKPESSKALDWRDYFKVINASQQQRFSYNPHKMQFIFVPNKKQNGLGGIAGFLPDIEDKVQMFLTRYYLTNDRVMRNENFQNSDMFNPLSSMVSLQNELSNTNRQQQSSSMSITPIKNLLGRDAQNFLLLGLLNKNFKGNWSLEDPSGSVEIDISQTIPTQGHYYVPGCMVLVEGIYYSVGNKFHVTSMTLPPGERREITLETIGNLDLLGIHGISNNNFIARLDKDLKIRLHLLEKELTDHKFVILGANLFLDDLKIMTALSKILQKLNDDPPTLLIWQGSFTSVPVFASMSSRNISSSTQFKNNFDALATLLSRFDNLTENTTMIFIPGPNDLWGSMVSLGASGTLPQDPIPSAFTKKINKVCKNVVWSSNPTRIAYLSQEIVIFRDDLSGRFKRHRLEFPFNESEDVYTENDNMMSKDTDIVPIDELVKEPDQLPQKVQETRKLVKTILDQGHLSPFLDSLRPISWDLDHTLTLCPIPSTMVLCDTTSAQFDLTYNGCKVINPGSFIHNRRARYMEYVPSSKKTIQEEIYI
